Experimental data: PubChem BioAssay AID1259354 (Paczesny and Yang Labs, IUPUI and University of Michigan, 2018)
Among all 78,000 compounds or so, about 1,800 (2.3%) were called active. The shares of active, inactive and inconclusive entries below differ from those in the screen. Cut-off read from the data, not from the text of the source: active = inhibition above about 30%; inconclusive = mostly about 10% to 28%; inactive = weaker than that.

Sequences of proteins named here, by UniProt entry; tags and fusion partners are left off. A change or cut given only in a name is not applied to a line headed by its entry.
UniProt Q01638: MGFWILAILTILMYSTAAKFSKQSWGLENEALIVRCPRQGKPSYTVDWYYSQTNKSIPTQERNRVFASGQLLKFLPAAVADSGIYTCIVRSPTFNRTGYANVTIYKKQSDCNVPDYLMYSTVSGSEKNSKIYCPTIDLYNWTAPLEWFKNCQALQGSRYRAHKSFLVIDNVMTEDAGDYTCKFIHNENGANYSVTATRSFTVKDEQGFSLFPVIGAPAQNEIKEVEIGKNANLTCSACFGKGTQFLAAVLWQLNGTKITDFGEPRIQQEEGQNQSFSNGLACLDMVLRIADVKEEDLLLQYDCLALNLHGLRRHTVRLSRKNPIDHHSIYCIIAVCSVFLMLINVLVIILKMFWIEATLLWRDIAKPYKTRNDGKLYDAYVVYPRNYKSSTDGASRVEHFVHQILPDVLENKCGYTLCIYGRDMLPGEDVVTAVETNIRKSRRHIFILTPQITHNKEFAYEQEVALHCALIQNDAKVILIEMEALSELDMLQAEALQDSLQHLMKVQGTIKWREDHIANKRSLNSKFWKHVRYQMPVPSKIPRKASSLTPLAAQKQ

biological target: Interleukin-1 receptor-like 1 (Homo sapiens) (UniProt Q01638); assay: blocks human ST2 binding to IL-33, primary screen, biochemical, AlphaLISA (AID 1259354); conditions: AlphaLISA ST2-Fc/biotin-IL-33 interaction, 1 h; at 17 µM, stronger effect = higher value

Row | Structure (SMILES) | inhibition
1 | CCOC(=O)C1=C(c2ccccc2)OC(N)=C(C#N)C1c1ccc(C)cc1 (stereo not drawn) | inconclusive: 16%
2 | Oc1ccc(C2=NNC(c3ccc(O)cc3)=NN2)cc1 | inconclusive: 10%
3 | Nc1nc2n(n1)C(c1ccc(Cl)cc1)CC(c1ccc(F)cc1)N2 (stereo not drawn) | inconclusive: 10%
4 | Cc1cc(C)n(CCNC2CCN(c3ccc4c(c3)OCO4)CC2)c(=O)n1 | inconclusive: 13%
5 | Cn1c(=O)c2c(nc(Oc3ccc(Cl)cc3)n2Cc2ccccc2)n(C)c1=O | inconclusive: 10%
6 | COc1ccc(C(=O)OCCN(C2=NS(=O)(=O)c3ccccc32)c2ccccc2)cc1OC | inconclusive: 11%
7 | COc1cc(C(=O)NCc2nc3cccnc3n2Cc2ccc(C)cc2)cc(OC)c1OC | inconclusive: 14%
8 | COc1ccc(Cl)cc1S(=O)(=O)n1c(C)nc2ccccc21 | inconclusive: 23%
9 | COc1ccc(C2CC(=O)c3c(O)cc(O)cc3O2)cc1O (stereo not drawn) | inconclusive: 24%
10 | CC(=O)Nc1ccc(-c2cn(Cc3ccccc3)cn2)cc1 | inconclusive: 14%
11 | CSCCOc1nc2c(c(=O)n(C)c(=O)n2C)n1Cc1ccccc1Cl | inactive
12 | CCOc1ccccc1CN1CCNC(=O)C1CC(=O)NCC(C)(C)CN(C)C (stereo not drawn) | inactive
13 | OCCC1CN(C/C=C/c2ccco2)CCN1Cc1ccccc1 (stereo not drawn) | inconclusive: 16%
14 | COc1ccc(-c2ccc(/C=C3/SC(N4CCN(C(C)=O)CC4)=NC3=O)o2)cc1 | inconclusive: 21%
15 | O=C(CSc1nc2c(c(=O)n1-c1ccccc1)SCC2)N1CCOCC1 | inconclusive: 14%
16 | CCCN(C(=O)c1ccc(-n2ccnc2)cc1)C1CCCC1 | inconclusive: 18%
17 | COc1cccc(N(CC(=O)NCc2ccccc2OC)S(=O)(=O)c2ccc(C)cc2)c1 | inactive
18 | CCc1c(O)nc(SCC(=O)Nc2ccccc2)n(C(C)CC)c1=O (stereo not drawn) | inconclusive: 16%
19 | O=c1[nH]cnc2c1sc1nc(-c3ccco3)c3c(c12)CCCC3 | inconclusive: 25%
20 | O=C(c1cnccn1)N1C[C@@H]2C[C@H](C1)c1ccc(NS(=O)(=O)c3cccc(F)c3)c(=O)n1C2 | inconclusive: 20%

Row | Structure (SMILES) | inhibition
21 | CCOC(=O)C1=C[C@]2(CC)CCCN3CCc4c(n1c1ccccc41)[C@@H]32 | inconclusive: 16%
22 | CCOC(=O)CCc1nc2ccccc2[nH]c1=O | inconclusive: 16%
23 | CSc1ccc(-c2nc(CSCC(=O)NCc3ccc4c(c3)OCO4)c(C)o2)cc1 | inconclusive: 10%
24 | COc1ccccc1C(O)(CCN1CCCCC1)c1ccccc1 (stereo not drawn) | inconclusive: 16%
25 | O=C(NCc1ccco1)N1CCCC(Cn2cc(CCO)nn2)C1 (stereo not drawn) | inconclusive: 10%
26 | COc1ccc(NC(=O)N[C@H]2[C@H](O)[C@@H](N(C)CCN(C)C)[C@@H]3OC[C@H]2O3)cc1 | inactive
27 | N#Cc1cccc(CN2C[C@H](O)C[C@H]2c2nc(Cc3ccc(F)cc3Cl)no2)c1 | inconclusive: 24%
28 | Cc1ccc(-c2cc(C(=O)N(C)CCc3cnn(C)c3)cc(S(=O)(=O)N3CCOCC3)c2)s1 | inactive
29 | Cc1cc(OCC(=O)O)c(C)c2c1CC[C@@H]([C@H](C)C(=O)NCc1ccccc1)C2 | inconclusive: 19%
30 | CCOc1cc2c(cc1-c1nccn1Cc1cnn(C)c1C)CCC2 | inactive
31 | O=C(O)CCCC(=O)NC1CCCCCCC1 | inactive
32 | CCOC(=O)C1(Cc2ccccc2)CCCN(C(=O)NCc2ccccc2)C1 (stereo not drawn) | inconclusive: 12%
33 | Cc1ccc(NC(=O)C2(N(Cc3ccccc3)C(=O)Cc3nc(N)n[nH]3)CCCCC2)cc1 | inconclusive: 14%
34 | O=C(c1ccc(F)cc1)c1c[nH]c2c(F)cccc2c1=O | inconclusive: 12%
35 | O=c1oc(-c2ccccc2F)nc2scc(-c3cccs3)c12 | inconclusive: 26%
36 | CC(c1cnn(C)c1)n1ccnc1-c1cccc(O)c1 (stereo not drawn) | inconclusive: 21%
37 | O=C(CCCn1cnc([N+](=O)[O-])n1)Nc1c(F)cc(F)cc1Br | inconclusive: 13%
38 | CC(Cc1ccccn1)N(C)C(=O)Cc1cn(C)c2ccccc12 (stereo not drawn) | inconclusive: 10%
39 | COc1ccc2nc(N3CCN(c4ccccc4)CC3)sc2c1 | inactive
40 | CC(Oc1ccc(F)cc1F)C(=O)N1CC(c2cccnc2)C1 (stereo not drawn) | inconclusive: 11%

Row | Structure (SMILES) | inhibition
41 | CN(CC(=O)N1CCCCC1)S(=O)(=O)c1ccc(Cl)cc1 | inconclusive: 13%
42 | O=C(NC1CC1)c1cc2n(n1)CCCN(C(=O)Cc1c[nH]c3ccccc13)C2 | inconclusive: 10%
43 | COc1ccc(OC)c(C2NC(=O)NC(C)=C2C(=O)OCCc2ccccc2)c1Br (stereo not drawn) | inactive
44 | CC(C)c1csc(C(=O)N2CC[C@@H]3CC[C@H](C2)N3C)n1 | inconclusive: 22%
45 | Cc1cccc(-c2cc(N3CCN(S(=O)(=O)c4ccc(C(C)C)cc4)CC3)ncn2)c1 | inactive
46 | COc1ccc(OCC(=O)Nc2ccc3nn(-c4ccc(OC)cc4)nc3c2)cc1 | inconclusive: 20%
47 | CC1=NN(C(=O)c2ccc(Cl)cc2)C(O)(c2cccc([N+](=O)[O-])c2)C1 (stereo not drawn) | inconclusive: 11%
48 | O=C(N1C[C@@H]2C3CCC(CC3)[C@@H]2C1)C1(S(=O)(=O)c2ccccc2)CC1 | inconclusive: 13%
49 | Cc1ccc2nc(-c3ccc(C)o3)c(NC3CCCC3)n2c1 | inconclusive: 17%
50 | Cc1ccnn1CCN1CCC(=O)N(CC2CC2)C(C(C)C)C1 (stereo not drawn) | inconclusive: 13%
51 | OC(C#CC12CC3CC(CC(C3)C1)C2)c1cccs1 (stereo not drawn) | inconclusive: 16%
52 | O=C1CO[C@H]2CN(C3CCOCC3)C[C@H]2N1Cc1ccc(F)cc1 | inconclusive: 11%
53 | CC(=O)Nc1ccc(S(=O)(=O)Nc2nnc(C(C)(C)C)s2)cc1 | inconclusive: 13%
54 | COC(c1ccc2c(c1)CN(C(=O)c1cccc(Cn3cccn3)c1)CCO2)C1CCCCC1 (stereo not drawn) | inconclusive: 22%
55 | COc1ccc(NC(=O)Nc2nnc(-c3ccccc3F)s2)cc1 | inconclusive: 20%
56 | Cc1nc(SCC(=O)Nc2ccc(C(N)=O)cc2)c(C#N)c(C)c1C | inconclusive: 12%
57 | C=CCOC(=O)C1=C(C)OC(N)=C(C#N)C1c1ccccc1Cl (stereo not drawn) | inactive
58 | Cc1noc(C)c1CC(=O)NC1CC(=O)N(Cc2cccc3ccccc23)C1 (stereo not drawn) | inconclusive: 16%

Quoted at random: 2 entries already listed
Row | Structure (SMILES) | inhibition
57 | C=CCOC(=O)C1=C(C)OC(N)=C(C#N)C1c1ccccc1Cl (stereo not drawn) | inactive
42 | O=C(NC1CC1)c1cc2n(n1)CCCN(C(=O)Cc1c[nH]c3ccccc13)C2 | inconclusive: 10%
